According to US5340718 (dated 1994):

Assay: general procedure: Boc solid-phase peptide synthesis; p-methylbenzhydrylamine hydrochloride resin
Settings: whole synthesis, scale of the general procedure 0.2-0.5 mmoles

Row | Substance | final HPLC purity [%]
1 | PEDVDTTYPDKKSILMYITSLFQVLPQQVSIEAIQEVEMLPRPPKVTKEE-NH2 | 99.6
2 | LISLESEERGELERILADLEEENRNLQAEYDRLKQQHEHKGLSPLPSPPE-NH2 | 99.9
3 | YEREDVQKKTFTKWVNAQFSKFGKQHIENLFSDLQDGRRLLDLLEGLTGQ-NH2 | 95.9
4 | EGPFDVQETEIAVQAKQPDVEEILSKGQHLYKEKPATQPVKRKLEDLSSE-NH2 | 97.6

Ends that are not written are not given here.
